Data reported in the odorant receptor screen of Mainland et al. (2015).
“And” between values parts separate entries of the source, which are not always exact repeats. Equal values may be shown once. The list shows a part of the results. Each value is one well over the wells without odorant, computed here; the data are noisy.

Experiments:
Test in all cases: odorant receptor activation (CRE luciferase / Renilla) (fold of no-odor wells); higher = more activation
Details in all cases: 100 µM
OR5AN1 clone 1245 = system: OR5AN1 clone 1245
OR5AP2 clone 1209 = system: OR5AP2 clone 1209
OR5AR1 clone 1207 = system: OR5AR1 clone 1207
OR5AS1 clone 1135 = system: OR5AS1 clone 1135
[1] = system: OR5AU1 L66F/I248V clone 1421
OR5AU1 clone 1344 = system: OR5AU1 clone 1344
OR5B17 clone 1220 = system: OR5B17 clone 1220
OR5B2 M200T clone 1246 = system: OR5B2 M200T clone 1246
OR5B21 I279F clone 1482 = system: OR5B21 I279F clone 1482
OR5B3 clone 1138 = system: OR5B3 clone 1138

Compound	odorant receptor activation (OR5AN1 clone 1245)	odorant receptor activation (OR5AP2 clone 1209)	odorant receptor activation (OR5AR1 clone 1207)	odorant receptor activation (OR5AS1 clone 1135)	odorant receptor activation [1]	odorant receptor activation (OR5AU1 clone 1344)	odorant receptor activation (OR5B17 clone 1220)	odorant receptor activation (OR5B2 M200T clone 1246)	odorant receptor activation (OR5B21 I279F clone 1482)	odorant receptor activation (OR5B3 clone 1138)
O=C1CCCCC1 [Cyclohexanone]	0.22	0.817	0.861	1.63	0.783	0.641	0.911	0.419	0.623 and 0.89	0.766
CCCCCCCCOC(C)=O [octyl acetate]	1.02	1.07	1.36	1.01	0.741	0.975	0.818	0.962	0.935	0.983
CCCCO [1-butanol]	0.843	0.666	1.13	0.973	1.2	1	1.58	1.3	1.24	1.53
CCCCCOC(C)=O [n-amyl acetate]	0.511	0.513	0.635	0.714	0.771	0.422	0.565	0.688	0.546 and 0.914	0.852
CC(C)CC(=O)O [isovaleric acid]	0.751	1.12	1.25	1.07	0.804	0.853	0.812	0.859	1.01	1.05
COc1cc(C=O)ccc1O [vanillin]	0.852	0.942	1.01	1.08	1.04	0.833	0.941	0.957	1.12	1.32
CC=Cc1ccc(O)c(OC)c1 [isoeugenol]	1.22 and 3.11	1.23	1.85	0.982	1.45	1.57 and 1.17	0.828	0.99 and 2	1.04 and 2.26	1.42
c1cnccn1 [pyrazine]	0.668	0.878	0.872	1.02	1.29	0.838	0.872	0.587	1.01	1.09
CC1=NC(C)SC1C (stereo not given)	0.733	0.896	0.944	1.07	0.867	0.663	1.04	2.41	1.2 and 0.997	1.25
CC1=CCC(C(C)(C)O)CC1 (stereo not given) [terpineol]	0.876	1.29	1.35	1.23	1.03	0.87	1.02	0.952	0.797	1.21
O=C1CCCCCCCCCCCCCCO1 [pentadecalactone]	1.13	0.82	0.84	0.927	1.34	0.78	0.71	0.552	0.986	0.811
CCCCCC(=O)O [caproic acid]	0.817	0.935	1.23	1.07	0.367	0.763	0.953	0.874	0.961	1.3
CCCCCCCC=O [octyl aldehyde]	1.05	1.37	1.28	0.931	0.977	1.03	0.867	0.994	1.11	0.996
CC(C)CCC(=O)O [4-methylvaleric acid]	1.03	0.789	1.01	1.1	1.02	0.976	1.33	1.22	0.889	1.41

Some values from above.
In odorant receptor activation (OR5AU1 clone 1344), `CC1=NC(C)SC1C` (stereo not given) reads 0.663
In odorant receptor activation (OR5B3 clone 1138), `CC=Cc1ccc(O)c(OC)c1` [isoeugenol] reads 1.42
